Here are results for 31 targets from the supplement of paper PMC10849652.

Protein sequences, listed by entry. Tags and fused reporters are not part of them. Lines headed by an entry give the natural chain unless they say otherwise; changes in a name come on top.
UniProt P31943: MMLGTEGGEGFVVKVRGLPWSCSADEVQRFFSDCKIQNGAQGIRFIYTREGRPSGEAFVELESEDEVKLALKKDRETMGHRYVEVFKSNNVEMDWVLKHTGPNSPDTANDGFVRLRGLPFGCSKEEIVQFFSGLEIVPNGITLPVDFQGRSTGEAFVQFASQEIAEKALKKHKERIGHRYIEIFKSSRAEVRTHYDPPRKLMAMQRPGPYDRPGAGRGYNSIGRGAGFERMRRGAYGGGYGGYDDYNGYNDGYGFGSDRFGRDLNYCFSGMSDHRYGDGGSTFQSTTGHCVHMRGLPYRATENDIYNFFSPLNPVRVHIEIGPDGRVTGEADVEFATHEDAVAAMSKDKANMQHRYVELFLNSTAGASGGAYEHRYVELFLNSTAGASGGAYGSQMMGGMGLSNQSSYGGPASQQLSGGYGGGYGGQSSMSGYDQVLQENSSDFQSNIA
UniProt P49773: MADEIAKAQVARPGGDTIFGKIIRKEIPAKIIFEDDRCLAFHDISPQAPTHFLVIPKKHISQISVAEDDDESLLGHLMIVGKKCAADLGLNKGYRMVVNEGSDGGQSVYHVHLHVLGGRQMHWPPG
UniProt Q92598: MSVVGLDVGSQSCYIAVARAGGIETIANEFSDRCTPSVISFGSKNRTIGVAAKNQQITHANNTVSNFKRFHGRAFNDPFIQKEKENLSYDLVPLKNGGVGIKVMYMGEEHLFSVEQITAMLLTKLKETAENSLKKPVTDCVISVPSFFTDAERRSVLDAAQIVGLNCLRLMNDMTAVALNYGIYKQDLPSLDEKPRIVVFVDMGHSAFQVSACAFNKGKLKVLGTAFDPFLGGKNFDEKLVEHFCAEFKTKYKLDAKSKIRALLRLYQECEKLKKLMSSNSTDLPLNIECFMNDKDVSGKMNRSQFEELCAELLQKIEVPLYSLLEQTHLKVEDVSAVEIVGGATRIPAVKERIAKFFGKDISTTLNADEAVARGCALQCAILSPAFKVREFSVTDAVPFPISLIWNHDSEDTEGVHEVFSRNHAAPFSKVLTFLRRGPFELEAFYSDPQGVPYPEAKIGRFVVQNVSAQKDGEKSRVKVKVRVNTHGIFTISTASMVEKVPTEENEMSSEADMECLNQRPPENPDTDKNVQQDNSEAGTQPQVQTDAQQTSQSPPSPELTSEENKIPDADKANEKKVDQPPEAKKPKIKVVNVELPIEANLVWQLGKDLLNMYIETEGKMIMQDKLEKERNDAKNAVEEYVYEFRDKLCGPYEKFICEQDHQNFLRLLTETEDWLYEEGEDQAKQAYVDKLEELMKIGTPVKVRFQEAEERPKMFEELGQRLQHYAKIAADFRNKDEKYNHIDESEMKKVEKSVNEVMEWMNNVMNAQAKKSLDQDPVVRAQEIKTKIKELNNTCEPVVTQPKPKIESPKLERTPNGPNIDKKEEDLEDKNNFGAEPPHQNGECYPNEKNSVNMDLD
UniProt P08238, whole entry, looked up: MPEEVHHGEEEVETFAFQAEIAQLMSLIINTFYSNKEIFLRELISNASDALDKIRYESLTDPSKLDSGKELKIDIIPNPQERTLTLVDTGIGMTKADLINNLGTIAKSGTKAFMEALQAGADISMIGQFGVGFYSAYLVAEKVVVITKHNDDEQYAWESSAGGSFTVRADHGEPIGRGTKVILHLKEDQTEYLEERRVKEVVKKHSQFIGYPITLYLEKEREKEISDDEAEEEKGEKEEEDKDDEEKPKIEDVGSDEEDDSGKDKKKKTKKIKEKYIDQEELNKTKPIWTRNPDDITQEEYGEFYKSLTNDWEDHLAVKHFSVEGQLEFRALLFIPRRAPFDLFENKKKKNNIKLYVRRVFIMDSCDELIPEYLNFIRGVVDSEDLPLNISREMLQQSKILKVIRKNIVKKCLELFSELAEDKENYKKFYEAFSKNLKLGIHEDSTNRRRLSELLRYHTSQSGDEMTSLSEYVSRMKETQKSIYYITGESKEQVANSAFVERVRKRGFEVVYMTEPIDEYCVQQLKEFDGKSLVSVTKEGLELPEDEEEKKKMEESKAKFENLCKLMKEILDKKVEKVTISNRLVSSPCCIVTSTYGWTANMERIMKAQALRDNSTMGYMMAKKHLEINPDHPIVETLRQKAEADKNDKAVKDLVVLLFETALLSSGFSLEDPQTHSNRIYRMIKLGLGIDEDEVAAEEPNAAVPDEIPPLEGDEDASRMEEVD
UniProt P09429: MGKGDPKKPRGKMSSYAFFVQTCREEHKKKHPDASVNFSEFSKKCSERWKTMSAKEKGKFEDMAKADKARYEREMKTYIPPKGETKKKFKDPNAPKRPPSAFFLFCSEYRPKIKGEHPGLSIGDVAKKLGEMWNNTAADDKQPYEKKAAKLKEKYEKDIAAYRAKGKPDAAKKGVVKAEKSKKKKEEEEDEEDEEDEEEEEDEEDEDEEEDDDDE
UniProt O15347: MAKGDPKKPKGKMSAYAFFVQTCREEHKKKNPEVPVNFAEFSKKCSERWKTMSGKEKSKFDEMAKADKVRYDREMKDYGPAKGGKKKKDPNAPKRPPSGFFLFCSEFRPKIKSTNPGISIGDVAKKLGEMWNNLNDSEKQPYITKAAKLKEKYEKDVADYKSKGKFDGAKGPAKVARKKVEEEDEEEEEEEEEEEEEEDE
UniProt P05114: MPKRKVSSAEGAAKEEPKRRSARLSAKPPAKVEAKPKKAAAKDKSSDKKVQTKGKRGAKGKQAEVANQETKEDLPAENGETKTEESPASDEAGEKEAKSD
UniProt O43719: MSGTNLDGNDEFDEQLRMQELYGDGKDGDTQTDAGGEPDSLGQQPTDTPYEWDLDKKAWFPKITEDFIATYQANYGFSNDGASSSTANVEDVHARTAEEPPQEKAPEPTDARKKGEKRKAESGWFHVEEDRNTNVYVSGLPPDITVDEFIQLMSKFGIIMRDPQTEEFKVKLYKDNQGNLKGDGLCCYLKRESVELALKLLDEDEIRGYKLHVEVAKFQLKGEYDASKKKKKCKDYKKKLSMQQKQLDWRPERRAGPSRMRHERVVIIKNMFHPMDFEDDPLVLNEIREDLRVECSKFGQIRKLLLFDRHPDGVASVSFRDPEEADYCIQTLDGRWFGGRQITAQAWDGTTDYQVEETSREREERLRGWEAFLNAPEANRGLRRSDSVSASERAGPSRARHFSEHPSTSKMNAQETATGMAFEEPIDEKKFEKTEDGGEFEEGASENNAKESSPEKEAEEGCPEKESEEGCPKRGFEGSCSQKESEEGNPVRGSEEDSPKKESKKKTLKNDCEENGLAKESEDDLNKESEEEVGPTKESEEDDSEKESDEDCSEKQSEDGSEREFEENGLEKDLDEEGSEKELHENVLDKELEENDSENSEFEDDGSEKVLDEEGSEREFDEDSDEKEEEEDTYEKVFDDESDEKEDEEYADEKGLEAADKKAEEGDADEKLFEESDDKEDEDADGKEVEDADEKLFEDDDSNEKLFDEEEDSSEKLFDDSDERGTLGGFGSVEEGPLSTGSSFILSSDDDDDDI
UniProt P14625, whole entry, looked up: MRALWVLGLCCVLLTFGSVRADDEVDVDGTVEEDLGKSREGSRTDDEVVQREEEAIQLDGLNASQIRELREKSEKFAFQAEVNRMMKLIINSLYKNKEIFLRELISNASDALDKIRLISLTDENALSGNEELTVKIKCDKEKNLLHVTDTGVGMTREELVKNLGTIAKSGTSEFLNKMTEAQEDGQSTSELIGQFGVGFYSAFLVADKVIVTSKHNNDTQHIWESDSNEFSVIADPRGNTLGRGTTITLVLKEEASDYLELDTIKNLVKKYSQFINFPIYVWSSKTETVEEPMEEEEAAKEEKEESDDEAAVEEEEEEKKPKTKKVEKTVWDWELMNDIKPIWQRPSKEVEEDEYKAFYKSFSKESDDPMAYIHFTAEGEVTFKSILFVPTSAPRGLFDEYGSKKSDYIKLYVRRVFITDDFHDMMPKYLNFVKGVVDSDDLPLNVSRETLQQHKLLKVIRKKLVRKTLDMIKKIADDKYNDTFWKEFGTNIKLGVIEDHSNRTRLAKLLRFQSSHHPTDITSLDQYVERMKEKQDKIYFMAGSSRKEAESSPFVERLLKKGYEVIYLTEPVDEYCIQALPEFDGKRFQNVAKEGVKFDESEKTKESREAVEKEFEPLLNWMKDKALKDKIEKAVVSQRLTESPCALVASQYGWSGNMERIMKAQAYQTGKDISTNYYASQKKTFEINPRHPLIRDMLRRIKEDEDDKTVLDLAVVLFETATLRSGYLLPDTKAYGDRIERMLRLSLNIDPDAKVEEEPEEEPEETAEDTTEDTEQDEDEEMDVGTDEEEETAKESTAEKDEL
UniProt Q5SSJ5: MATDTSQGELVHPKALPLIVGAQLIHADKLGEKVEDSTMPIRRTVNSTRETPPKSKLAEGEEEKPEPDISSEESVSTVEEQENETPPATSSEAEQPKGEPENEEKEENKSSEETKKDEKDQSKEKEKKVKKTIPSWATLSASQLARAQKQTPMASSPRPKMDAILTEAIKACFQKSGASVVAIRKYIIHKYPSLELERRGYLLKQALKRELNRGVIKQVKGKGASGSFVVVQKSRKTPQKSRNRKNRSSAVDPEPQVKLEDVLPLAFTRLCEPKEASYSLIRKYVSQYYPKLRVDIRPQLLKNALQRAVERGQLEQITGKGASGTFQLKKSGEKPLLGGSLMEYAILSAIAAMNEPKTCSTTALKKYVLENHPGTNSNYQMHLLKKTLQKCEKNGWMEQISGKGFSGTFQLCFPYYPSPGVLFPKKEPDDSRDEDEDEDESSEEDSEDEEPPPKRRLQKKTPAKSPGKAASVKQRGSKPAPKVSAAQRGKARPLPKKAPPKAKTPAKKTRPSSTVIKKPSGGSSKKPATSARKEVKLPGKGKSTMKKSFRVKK
UniProt Q86VS8: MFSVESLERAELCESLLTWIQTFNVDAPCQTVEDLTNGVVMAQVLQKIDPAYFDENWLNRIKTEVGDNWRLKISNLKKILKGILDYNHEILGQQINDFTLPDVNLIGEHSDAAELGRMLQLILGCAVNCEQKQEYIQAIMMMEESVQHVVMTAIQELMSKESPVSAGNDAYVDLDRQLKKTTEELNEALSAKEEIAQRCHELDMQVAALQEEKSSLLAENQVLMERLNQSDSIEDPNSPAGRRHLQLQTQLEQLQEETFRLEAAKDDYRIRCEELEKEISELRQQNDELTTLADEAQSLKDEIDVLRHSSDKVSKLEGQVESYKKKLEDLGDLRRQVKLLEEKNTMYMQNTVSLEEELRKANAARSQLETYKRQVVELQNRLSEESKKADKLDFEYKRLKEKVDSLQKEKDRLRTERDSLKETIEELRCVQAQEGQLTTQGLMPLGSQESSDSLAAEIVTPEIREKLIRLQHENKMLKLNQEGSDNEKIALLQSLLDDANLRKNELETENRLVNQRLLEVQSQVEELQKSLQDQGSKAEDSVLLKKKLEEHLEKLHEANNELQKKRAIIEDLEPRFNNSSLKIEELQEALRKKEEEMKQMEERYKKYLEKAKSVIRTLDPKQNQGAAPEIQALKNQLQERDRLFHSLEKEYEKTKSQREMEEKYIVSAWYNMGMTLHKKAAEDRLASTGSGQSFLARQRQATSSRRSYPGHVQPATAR
UniProt P14735, whole entry, looked up: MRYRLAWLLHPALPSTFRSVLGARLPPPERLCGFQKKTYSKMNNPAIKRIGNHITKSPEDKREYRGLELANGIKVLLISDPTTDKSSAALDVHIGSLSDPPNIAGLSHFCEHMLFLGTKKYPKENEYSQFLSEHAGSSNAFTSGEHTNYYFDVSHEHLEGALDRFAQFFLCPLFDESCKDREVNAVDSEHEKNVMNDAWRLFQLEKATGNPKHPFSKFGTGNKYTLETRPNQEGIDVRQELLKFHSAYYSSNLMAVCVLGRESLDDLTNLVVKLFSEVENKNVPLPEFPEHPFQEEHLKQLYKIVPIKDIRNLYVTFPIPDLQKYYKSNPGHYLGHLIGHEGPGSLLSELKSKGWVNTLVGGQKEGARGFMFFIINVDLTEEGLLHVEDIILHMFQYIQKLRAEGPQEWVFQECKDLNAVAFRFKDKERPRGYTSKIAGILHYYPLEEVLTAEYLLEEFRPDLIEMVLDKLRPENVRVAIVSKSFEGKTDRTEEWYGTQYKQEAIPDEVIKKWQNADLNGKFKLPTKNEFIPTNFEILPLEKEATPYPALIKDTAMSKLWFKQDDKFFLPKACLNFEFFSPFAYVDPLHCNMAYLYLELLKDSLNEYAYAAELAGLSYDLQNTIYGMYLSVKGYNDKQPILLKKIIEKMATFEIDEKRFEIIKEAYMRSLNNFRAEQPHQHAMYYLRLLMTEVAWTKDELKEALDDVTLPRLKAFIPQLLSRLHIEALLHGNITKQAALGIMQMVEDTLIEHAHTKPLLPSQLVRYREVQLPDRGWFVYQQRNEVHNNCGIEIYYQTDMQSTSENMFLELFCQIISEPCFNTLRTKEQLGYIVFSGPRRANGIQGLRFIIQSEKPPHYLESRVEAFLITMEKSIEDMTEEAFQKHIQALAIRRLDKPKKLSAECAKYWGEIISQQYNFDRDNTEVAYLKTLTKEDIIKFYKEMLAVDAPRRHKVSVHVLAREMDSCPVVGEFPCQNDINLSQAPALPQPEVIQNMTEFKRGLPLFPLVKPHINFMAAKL

This is one part of the list.

Compound in the first test: Cn1cncc1[C@@](N)(c1ccc(Cl)cc1)c1ccc2c(c1)c(-c1cccc(Cl)c1)cc(=O)n2C [tipifarnib]
Description: log2 fold change, soluble protein after heating vs DMSO (PISA); higher = thermal stabilisation; K562 cells, 10 uM, 30 min; active = over 0.2 and 3.5 SD of the protein, either way, in both replicates (recomputed). In outline: (§1)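 K562 cells at 2×10^6 cells/mL were treated for 30 min with 10 μM compound, and aliquots were heated for 3 min over 48°C-58°C before pooling. Extraction used PBS with 0.5% NP-40 at 4°C, and soluble protein was the supernatant after 21,000xg for 90 min, measured by TMTpro 16plex LC-MS/MS with channel sums equalised. Thermal stability values, relative to control samples and from duplicates, are log2 fold changes.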
Turning to HNRNPH1 (UniProt P31943), the log2 fold change is inactive: -0.124. Still for that read-out and setting: with HIP1 (UniProt O00291) the figure was inactive: -0.099; with HINT1 (UniProt P49773), inactive: -0.075. Take HSPBP1 isoform 3 (UniProt Q9NZL4): the log2 fold change is inactive: -0.075.

Consider HYOU1 (UniProt Q9Y4L1), for which the log2 fold change was inactive: 0.016. Regarding HTATIP2 isoform 3 (UniProt Q9BUP3), the log2 fold change is inactive: 0.106. Take HK2 (UniProt P52789): the log2 fold change was inactive: -0.01. Same read-out and setting: with HSPA1A (UniProt P0DMV8) the figure was inactive: 0.07. As to HMCN1 (UniProt Q96RW7), the log2 fold change was inactive: -0.056.

Compound in a further test: FC(F)(F)c1ccc(/C=C/c2nc(COc3ccc(CCCCn4ccnn4)cc3)co2)cc1 [mubritinib]
The test is described as above. In outline:
as §1
As for HSPH1 (UniProt Q92598), the log2 fold change is inactive: 0.003. As for HSPA8 (UniProt E9PK54), the log2 fold change was inactive: 0.024. As for HNRNPK isoform 2 (UniProt P61978), the log2 fold change is inactive: -0.024. Turning to HMGN5 (UniProt P82970), the log2 fold change is inactive: 0.016. For HIST2H2BF isoform 2 (UniProt Q5QNW6), the log2 fold change was inactive: -0.173. On to HSP90AB1 (UniProt P08238), for which the log2 fold change was inactive: 0.051. As to HTRA2 (UniProt O43464), the log2 fold change was inactive: 0.047. On the same count and under the same terms, the result for HSPB11 (UniProt Q9Y547) reads inactive: 0.039; that for HNRNPH3 (UniProt P31942), inactive: -0.247. Turning to HMGB1 (UniProt P09429), the log2 fold change is inactive: 0. For the target HMGCL (UniProt P35914), the log2 fold change was inactive: 0.034. On to HMGB3 (UniProt O15347), for which the log2 fold change was inactive: 0.01. With HMGN1 (UniProt P05114), the log2 fold change is inactive: -0.049. HTATSF1 (UniProt O43719): the log2 fold change is inactive: 0.062. As for HSP90B1 (UniProt P14625), the log2 fold change is inactive: -0.049. Consider HP1BP3 (UniProt Q5SSJ5), for which the log2 fold change was inactive: 0.026. Regarding HOOK3 (UniProt Q86VS8), the log2 fold change is inactive: -0.024. On the same count and under the same terms, the result for HNRNPM (UniProt P52272) reads inactive: -0.363; that for HIRIP3 (UniProt Q9BW71), inactive: 0.027; that for HUS1 (UniProt O60921), inactive: 0.03. Consider IDE (UniProt P14735), for which the log2 fold change is inactive: 0.037. Take HNRNPUL1 (UniProt Q9BUJ2): the log2 fold change is active: -0.231.

For HNRNPH1 (UniProt P31943), the log2 fold change was inactive: -0.044. HIP1 (UniProt O00291): the log2 fold change is inactive: 0.077. Still for that read-out and setting: with HINT1 (UniProt P49773) the figure was inactive: 0.079. The same measure, in the same setting: with HSPBP1 isoform 3 (UniProt Q9NZL4) the figure was inactive: 0.05. For the target HYOU1 (UniProt Q9Y4L1), the log2 fold change was inactive: -0.128. As to HTATIP2 isoform 3 (UniProt Q9BUP3), the log2 fold change was inactive: -0.063.

On to HK2 (UniProt P52789), for which the log2 fold change is inactive: 0.046. The same measure, in the same setting: with HSPA1A (UniProt P0DMV8) the figure was inactive: -0.007; with HMCN1 (UniProt Q96RW7), inactive: -0.538.
